Assay results from PMC6317983.
A weaker result is weaker than the reference pair of the same experiment.

Amino acid sequences for entries named in this document (tags omitted).
UniProt A0A5A4N0D4, entry or part of it: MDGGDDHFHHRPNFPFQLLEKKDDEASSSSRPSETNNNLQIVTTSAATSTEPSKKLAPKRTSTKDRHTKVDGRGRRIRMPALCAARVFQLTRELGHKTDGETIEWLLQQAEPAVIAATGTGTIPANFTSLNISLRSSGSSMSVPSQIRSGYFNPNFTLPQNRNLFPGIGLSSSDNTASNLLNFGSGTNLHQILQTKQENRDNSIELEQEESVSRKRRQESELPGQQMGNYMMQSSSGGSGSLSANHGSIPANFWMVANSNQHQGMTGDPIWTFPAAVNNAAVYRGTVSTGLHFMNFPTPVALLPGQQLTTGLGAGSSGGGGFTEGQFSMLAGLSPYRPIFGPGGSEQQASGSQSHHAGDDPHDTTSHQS

Target: His-AaTCP14 (His-TF-AaTCP14) (Artemisia annua) (UniProt A0A5A4N0D4)
Test: EMSA
Conditions: DIG Gel Shift Kit 2nd Generation (Roche); 0.5 ug His-AaTCP14 or His-TF; pH and temperature not stated; recombinant protein; residues 1-369; protein details: His-TF (pCold-TF); label: DIG (kit)

Sequence | binding result
GTCGCTAAACTTGCCACGTTGAAACATTTTTCAACTCTTATTA (double strand) [D2q-mutated2] | binds more weakly
GGTTGGTTGCATTATCTGGCAAACACGTAAACAATCAAATGC (double strand) [A1q-mutated1] | binds more weakly
GGTTGGTTGCATTATCTTTAAAACACGTAAACAATCAAATGC (double strand) [A1q-mutated2] | binds more weakly
GTCGCTAAACTTGCCACGGTAAACATTTTTCAACTCTTATTA (double strand) [D2q-mutated1] | binds more weakly
